{
  "sequences": {"note": "Sequences of proteins named here, by UniProt entry; tags and fusion partners are left off.", "HIST1H1E, P10412, UniProt P10412, whole entry": "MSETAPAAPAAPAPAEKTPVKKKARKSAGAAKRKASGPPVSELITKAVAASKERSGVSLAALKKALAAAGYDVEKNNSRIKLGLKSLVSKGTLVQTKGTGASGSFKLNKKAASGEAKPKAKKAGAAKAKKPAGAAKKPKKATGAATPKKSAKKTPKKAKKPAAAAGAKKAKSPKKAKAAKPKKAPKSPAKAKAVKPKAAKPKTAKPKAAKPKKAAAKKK", "CCT5, P48643, UniProt P48643, whole entry": "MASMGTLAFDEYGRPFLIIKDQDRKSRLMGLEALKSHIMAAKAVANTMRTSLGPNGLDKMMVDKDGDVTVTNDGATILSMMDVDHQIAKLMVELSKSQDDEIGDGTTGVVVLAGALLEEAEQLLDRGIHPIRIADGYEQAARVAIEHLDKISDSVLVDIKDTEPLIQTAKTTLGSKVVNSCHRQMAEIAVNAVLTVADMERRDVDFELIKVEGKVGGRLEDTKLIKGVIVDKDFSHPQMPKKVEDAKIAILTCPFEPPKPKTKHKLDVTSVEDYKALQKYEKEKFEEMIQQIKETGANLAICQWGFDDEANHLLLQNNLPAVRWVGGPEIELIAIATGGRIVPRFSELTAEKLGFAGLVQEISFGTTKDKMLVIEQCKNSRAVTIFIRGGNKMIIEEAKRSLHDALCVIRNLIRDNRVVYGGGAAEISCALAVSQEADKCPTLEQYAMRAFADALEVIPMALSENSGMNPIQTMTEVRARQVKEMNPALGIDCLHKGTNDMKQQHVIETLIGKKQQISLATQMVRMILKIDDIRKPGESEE", "NDUFS5, O43920, UniProt O43920, whole entry": "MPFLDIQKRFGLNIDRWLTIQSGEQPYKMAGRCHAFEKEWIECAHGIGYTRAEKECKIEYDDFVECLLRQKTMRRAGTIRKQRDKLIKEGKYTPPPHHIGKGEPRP", "RFC2, P35250, UniProt P35250, whole entry": "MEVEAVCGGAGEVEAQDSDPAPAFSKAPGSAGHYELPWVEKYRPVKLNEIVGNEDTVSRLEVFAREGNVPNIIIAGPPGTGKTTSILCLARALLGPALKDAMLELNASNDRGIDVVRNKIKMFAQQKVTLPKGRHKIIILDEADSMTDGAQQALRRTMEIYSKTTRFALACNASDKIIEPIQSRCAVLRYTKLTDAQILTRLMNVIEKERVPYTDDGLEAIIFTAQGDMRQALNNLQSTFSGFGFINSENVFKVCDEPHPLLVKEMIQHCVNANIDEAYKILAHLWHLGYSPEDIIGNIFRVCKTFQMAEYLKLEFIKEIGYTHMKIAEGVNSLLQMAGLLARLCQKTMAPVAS", "CD2AP, Q9Y5K6, UniProt Q9Y5K6, whole entry": "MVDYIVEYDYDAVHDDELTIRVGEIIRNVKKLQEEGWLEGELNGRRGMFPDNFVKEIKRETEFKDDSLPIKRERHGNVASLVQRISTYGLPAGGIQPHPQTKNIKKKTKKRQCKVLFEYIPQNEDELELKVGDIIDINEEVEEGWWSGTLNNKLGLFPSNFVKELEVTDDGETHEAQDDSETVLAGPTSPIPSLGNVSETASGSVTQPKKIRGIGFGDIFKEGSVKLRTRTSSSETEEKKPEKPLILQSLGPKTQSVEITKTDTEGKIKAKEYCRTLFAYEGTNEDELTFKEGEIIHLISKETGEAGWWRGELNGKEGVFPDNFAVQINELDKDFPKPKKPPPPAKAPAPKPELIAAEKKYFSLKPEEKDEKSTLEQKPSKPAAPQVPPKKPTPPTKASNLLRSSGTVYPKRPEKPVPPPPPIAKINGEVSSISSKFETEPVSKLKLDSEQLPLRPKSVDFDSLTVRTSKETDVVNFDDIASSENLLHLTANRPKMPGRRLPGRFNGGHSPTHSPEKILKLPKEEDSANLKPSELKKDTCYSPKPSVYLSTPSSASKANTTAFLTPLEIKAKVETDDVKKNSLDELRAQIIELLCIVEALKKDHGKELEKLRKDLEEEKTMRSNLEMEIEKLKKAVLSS", "PPP1CB, P62140, UniProt P62140, whole entry": "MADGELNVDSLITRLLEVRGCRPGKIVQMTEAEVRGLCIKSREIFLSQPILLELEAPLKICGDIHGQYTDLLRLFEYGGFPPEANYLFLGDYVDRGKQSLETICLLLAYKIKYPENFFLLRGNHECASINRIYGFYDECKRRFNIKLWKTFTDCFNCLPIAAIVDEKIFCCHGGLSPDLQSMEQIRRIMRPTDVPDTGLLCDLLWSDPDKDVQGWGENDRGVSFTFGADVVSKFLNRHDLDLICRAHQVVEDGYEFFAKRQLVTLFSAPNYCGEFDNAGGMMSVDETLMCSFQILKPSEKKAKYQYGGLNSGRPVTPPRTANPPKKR", "PRMT5, O14744, UniProt O14744, whole entry": "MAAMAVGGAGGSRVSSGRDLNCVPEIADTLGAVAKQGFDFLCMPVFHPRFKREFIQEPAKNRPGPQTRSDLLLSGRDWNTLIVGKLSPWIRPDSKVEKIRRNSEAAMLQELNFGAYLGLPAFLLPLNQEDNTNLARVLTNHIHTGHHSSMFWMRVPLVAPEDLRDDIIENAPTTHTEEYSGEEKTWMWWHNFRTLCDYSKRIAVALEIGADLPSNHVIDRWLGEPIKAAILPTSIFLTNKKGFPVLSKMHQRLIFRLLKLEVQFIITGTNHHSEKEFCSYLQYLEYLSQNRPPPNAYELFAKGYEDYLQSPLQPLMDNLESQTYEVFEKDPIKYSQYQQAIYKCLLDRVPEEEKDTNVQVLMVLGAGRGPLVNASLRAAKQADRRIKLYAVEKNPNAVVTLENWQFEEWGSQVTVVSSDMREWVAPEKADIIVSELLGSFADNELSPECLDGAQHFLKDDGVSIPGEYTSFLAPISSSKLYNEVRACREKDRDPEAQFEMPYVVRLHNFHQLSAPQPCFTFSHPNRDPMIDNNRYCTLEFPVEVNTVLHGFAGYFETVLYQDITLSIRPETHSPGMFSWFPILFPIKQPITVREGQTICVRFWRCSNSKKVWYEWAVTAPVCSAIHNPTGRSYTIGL", "TUBB4A, P04350, UniProt P04350, whole entry": "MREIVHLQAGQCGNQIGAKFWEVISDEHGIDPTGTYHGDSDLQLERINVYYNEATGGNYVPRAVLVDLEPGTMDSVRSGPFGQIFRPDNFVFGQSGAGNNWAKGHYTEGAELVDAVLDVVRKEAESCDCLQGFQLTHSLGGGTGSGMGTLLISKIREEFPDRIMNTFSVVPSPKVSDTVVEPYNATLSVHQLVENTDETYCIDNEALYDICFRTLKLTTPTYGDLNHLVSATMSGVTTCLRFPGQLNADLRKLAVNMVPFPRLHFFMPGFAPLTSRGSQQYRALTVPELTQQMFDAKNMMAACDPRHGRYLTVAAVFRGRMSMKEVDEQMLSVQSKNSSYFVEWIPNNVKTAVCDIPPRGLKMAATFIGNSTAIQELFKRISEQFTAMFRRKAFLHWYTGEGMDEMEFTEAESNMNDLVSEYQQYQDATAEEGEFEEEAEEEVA"},
  "source": "the supplement of paper PMC10032668",
  "test_in_all_cases": "PRISMA enrichment of interactor (LFQ) in peptide spot vs all other peptide spots (log2 fold change); higher = stronger / more specific binding of the interactor to the peptide",
  "key": {"[1]": {"molecular_target": "CCDC47, Q96A33", "protocol": "(§1)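 PRISMA: 15-aa overlapping tiles (offset 8 aa) of 60 microproteins, plus SOS1/GLUT1 control peptides, were spot-synthesized on cellulose membranes in triplicate. Membranes were incubated with benzonase-treated HEK293T lysate, and bound proteins were identified by LC-MS/MS with LFQ. Enrichment is the log2 fold change of each protein in one spot versus all other spots. Only interactors passing the significance cutoff are listed.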"}, "[2]": {"molecular_target": "CTCF, P49711", "protocol": "as §1"}, "[3]": {"molecular_target": "HACD2, Q6Y1H2", "protocol": "as §1"}, "[4]": {"molecular_target": "HIST1H1E, P10412", "protocol": "as §1"}, "[5]": {"molecular_target": "POP1, Q99575", "protocol": "as §1"}, "[6]": {"molecular_target": "DIEXF, Q68CQ4", "protocol": "as §1"}, "[7]": {"molecular_target": "MBOAT7, Q96N66", "protocol": "as §1"}, "[8]": {"molecular_target": "MON2, Q7Z3U7", "protocol": "as §1"}, "[9]": {"molecular_target": "MRPS15, P82914", "protocol": "as §1"}, "[10]": {"molecular_target": "PA2G4, Q9UQ80", "protocol": "as §1"}, "[11]": {"molecular_target": "TFAM, Q00059", "protocol": "as §1"}, "[12]": {"molecular_target": "TKFC, Q3LXA3", "protocol": "as §1"}, "[13]": {"molecular_target": "ZNF326, Q5BKZ1", "protocol": "as §1"}, "[14]": {"molecular_target": "CCT5, P48643", "protocol": "as §1"}, "[15]": {"molecular_target": "GALK1, P51570", "protocol": "as §1"}, "[16]": {"molecular_target": "NDUFS5, O43920", "protocol": "as §1"}, "[17]": {"molecular_target": "RFC2, P35250", "protocol": "as §1"}, "[18]": {"molecular_target": "RUSC1, Q9BVN2", "protocol": "as §1"}, "[19]": {"molecular_target": "S100A9, P06702", "protocol": "as §1"}, "[20]": {"molecular_target": "SCML2, Q9UQR0", "protocol": "as §1"}, "[21]": {"molecular_target": "TDRKH, Q9Y2W6", "protocol": "as §1"}, "[22]": {"molecular_target": "CD2AP, Q9Y5K6", "protocol": "as §1"}, "[23]": {"molecular_target": "DBNL, Q9UJU6", "protocol": "as §1"}, "[24]": {"molecular_target": "HTATSF1, O43719", "protocol": "as §1"}, "[25]": {"molecular_target": "MDK, P21741", "protocol": "as §1"}, "[26]": {"molecular_target": "NLE1, Q9NVX2", "protocol": "as §1"}, "[27]": {"molecular_target": "PPP1CB, P62140", "protocol": "as §1"}, "[28]": {"molecular_target": "PRMT5, O14744", "protocol": "as §1"}, "[29]": {"molecular_target": "PSRC1, Q6PGN9", "protocol": "as §1"}, "[30]": {"molecular_target": "TMEM120A, Q9BXJ8", "protocol": "as §1"}, "[31]": {"molecular_target": "TUBB4A, P04350", "protocol": "as §1"}},
  "note": "The list shows a part of the results. The list holds hits alone, and they repeat only in part.",
  "data": [
    {"binder": "TCRKKARILTSSRAF", "note": "[PALLD]", "values": [
      {"measurement": "PRISMA enrichment of interactor (log2)", "setting": "[1]", "result": 5.24},
      {"measurement": "PRISMA enrichment of interactor (log2)", "setting": "[2]", "result": 4.74},
      {"measurement": "PRISMA enrichment of interactor (log2)", "setting": "[3]", "result": 4.48},
      {"measurement": "PRISMA enrichment of interactor (log2)", "setting": "[4]", "result": 6.38},
      {"measurement": "PRISMA enrichment of interactor (log2)", "setting": "[5]", "result": 6.94}
    ]},
    {"binder": "GRMRIATEVLKSKPN", "note": "[GAS5]", "values": [
      {"measurement": "PRISMA enrichment of interactor (log2)", "setting": "[1]", "result": 6.1},
      {"measurement": "PRISMA enrichment of interactor (log2)", "setting": "[6]", "result": 4.28},
      {"measurement": "PRISMA enrichment of interactor (log2)", "setting": "[7]", "result": 4.32},
      {"measurement": "PRISMA enrichment of interactor (log2)", "setting": "[8]", "result": 5.98},
      {"measurement": "PRISMA enrichment of interactor (log2)", "setting": "[9]", "result": 9.62},
      {"measurement": "PRISMA enrichment of interactor (log2)", "setting": "[10]", "result": 5.05},
      {"measurement": "PRISMA enrichment of interactor (log2)", "setting": "[11]", "result": 4.83},
      {"measurement": "PRISMA enrichment of interactor (log2)", "setting": "[12]", "result": 4.74},
      {"measurement": "PRISMA enrichment of interactor (log2)", "setting": "[13]", "result": 5.81}
    ]},
    {"binder": "IQKVPRRNFLLEKMK", "note": "[SOCS4]", "values": [
      {"measurement": "PRISMA enrichment of interactor (log2)", "setting": "[14]", "result": 6.75},
      {"measurement": "PRISMA enrichment of interactor (log2)", "setting": "[15]", "result": 4.72},
      {"measurement": "PRISMA enrichment of interactor (log2)", "setting": "[16]", "result": 8.95},
      {"measurement": "PRISMA enrichment of interactor (log2)", "setting": "[17]", "result": 4.73},
      {"measurement": "PRISMA enrichment of interactor (log2)", "setting": "[18]", "result": 7.16},
      {"measurement": "PRISMA enrichment of interactor (log2)", "setting": "[19]", "result": 6.74},
      {"measurement": "PRISMA enrichment of interactor (log2)", "setting": "[20]", "result": 4.11},
      {"measurement": "PRISMA enrichment of interactor (log2)", "setting": "[21]", "result": 4.76}
    ]},
    {"binder": "DWKGASQPQGNHKVL", "note": "[TRDN-AS1_2]", "values": [
      {"measurement": "PRISMA enrichment of interactor (log2)", "setting": "[22]", "result": 5.3},
      {"measurement": "PRISMA enrichment of interactor (log2)", "setting": "[23]", "result": 3.83},
      {"measurement": "PRISMA enrichment of interactor (log2)", "setting": "[24]", "result": 4.67},
      {"measurement": "PRISMA enrichment of interactor (log2)", "setting": "[25]", "result": 3.87},
      {"measurement": "PRISMA enrichment of interactor (log2)", "setting": "[26]", "result": 4.59},
      {"measurement": "PRISMA enrichment of interactor (log2)", "setting": "[27]", "result": 4.83},
      {"measurement": "PRISMA enrichment of interactor (log2)", "setting": "[28]", "result": 4.99},
      {"measurement": "PRISMA enrichment of interactor (log2)", "setting": "[29]", "result": 5.34},
      {"measurement": "PRISMA enrichment of interactor (log2)", "setting": "[30]", "result": 4.49},
      {"measurement": "PRISMA enrichment of interactor (log2)", "setting": "[31]", "result": 3.72}
    ]}
  ]
}
